Source: patent publication US20110230504A1, “ALLEVIATING DISORDERS WITH COMBINING AGENTS THAT INCREASE EPOXYGENATED FATTY ACIDS AND AGENTS THAT INCREASE cAMP” (The Regents Of The University Of California Office Of …, priority 2008, published 2011)
“Also recorded” adds a separate entry of the source. At least one compound was matched to its structure with a doubt left.

Assays:
rats [1] = assay: Streptozocin induced diabetic neuropathy, Von Frey mechanical allodynia; type: in vivo, rat; conditions: Von Frey's test
Experimental: The study was approved by UC Davis Animal Care and Use Committee. Male Sprague-Dawley rats weighing 250-350 g were obtained from Charles River Inc. Two models of inflammatory pain and one model of diabetic neuropathic pain were used to test the effects of sEHI. The main inflammatory pain model used involved intraplantar LPS (10 μg/animal) administration as described previously (Inceoglu B et al., Life Sci 79:2311-2319 (2006)). Briefly, following baseline thermal withdrawal latency and mechanical withdrawal threshold determination LPS (in saline) was administered into one hind paw and nociceptive thresholds were monitored over time. The other inflammatory pain model involved intraplantar carrageenan (1% in saline, 50 μl) administration and was only used when sEHI was administered into the spinal cord. Intrathecal catheters were implanted according to Yaksh and Rudy (Yaksh T L and Rudy T A, Physiol Behav 17(6):1031-1036 (1976)). Following baseline nociceptive response measurements carrageenan was administered into one hind paw and responses were monitored over time and after intraspinal sEHI administration. […] In experiments in which EETs, sEHI and cAMP analogue was administered intraspinally animals were maintained under deep anesthesia and therefore nociceptive thresholds were not determined.

COX2 mRNA = assay: Spinal COX2 mRNA after intraplantar LPS, qRT-PCR; type: in vivo, rat; conditions: rats
From the text: (§1) A purelink Micro to Midi total RNA purification kit (Invitrogen, CA) was used to extract RNA from whole spinal cord, adrenal gland and testis. For brain, the remaining caudal two thirds were sliced into two hemispheres from the midline and a coronal slice of 2 mm in thickness was taken for analysis. The RNA samples were quantified by spectrophotometry and converted to cDNA using a high capacity cDNA reverse transcription kit from Applied Biosystems (CA, USA). Taq-man probes for COX2 (Rn00568225_ml) StARD1 (Rn00580695_ml), ICER(Rn00569145_ml), Sst (Rn00561967_ml), sEH(Rn00576023_ml) genes were used according to manufacturer's instructions to quantify relative gene expression (Applied Biosystems). Experiments were performed in triplicate with GAPDH (glyceraldehyde 3-phosphate dehydrogenase message) serving as the endogenous control. Mean fold expression values from corresponding untreated animal tissues were used as calibrators.

StARD1 mRNA = StARD1 mRNA in LPS inflamed rats, qRT-PCR; type: in vivo, rat
From the text: as §1

rats [2] = assay: Thermal hindpaw withdrawal latency (Hargreaves), non-inflammatory model; type: in vivo, rat; conditions: s.c., over 4 hours, vs baseline
Experimental: Behavioral nociceptive testing was conducted by assessing thermal hindpaw withdrawal latencies (TWL) using a commercial Hargreaves apparatus (IITC, Woodland Hills, Calif.), or by determining mechanical hind paw withdrawal thresholds (MWT) using a digital paw pressure Randall-Selitto instrument (IITC, Woodland Hills, Calif.). On the day of the experiment, rats were transferred to a quiet room, acclimated for 1 hour and their baseline responses were measured. In pilot experiments, the intensity of the thermal stimulus was set to produce a baseline TWL of 7-8 sec. Baseline mechanical hind paw withdrawal thresholds varied between 60-70 grams of force. Immediately following baseline determination all compounds were administered subcutaneously in the following vehicles; Inhibitors of sEH were formulated in trans free oleate and administered in a total volume of 300 µL Rolipram, picrotoxin, flucanozole, miconazole and finasteride were all dissolved in a sterile saline solution containing 25% DMSO and administered in a volume of 50 μl. […] The instrument was set to the maximum holding (MH) mode and the readout that elicited a hind paw withdrawal was designated as the threshold. […] Open field activity was quantified using a Plexiglas chamber (40×40×30 cm, length×width×height) imprinted with a 10×10 cm grid. […] The number of crossings were recorded when both hind paws crossed into a neighboring cell. […]

C57BL/6 mice = assay: Pentobarbital induced loss of righting reflex; type: in vivo, mouse; conditions: pentobarbital 40 mg/kg i.p., TPAU 3 mg/kg, rolipram 1 mg/kg s.c.
From the text: Loss of righting was quantified as previously described, with a slightly lower dose of pentobarbital (Pinna, et al. (2004) Proc Natl Acad Sci USA, 101(16), 6222-6225).
In rats, sEHi-PDEi combination led to significant increases in nociceptive thresholds. We asked if co-administration of sEHi-PDEi combination would also enhance GABA-related activity in mice. Loss of righting reflex in pentobarbital administered mice following sEHi and PDEi administration was quantified.

[3] = system: C57BL/6 mice; sEH null mice; assay: Picrotoxin induced seizures; type: in vivo, mouse; conditions: picrotoxin 10 mg/kg s.c., TPAU 3 mg/kg, rolipram 1 mg/kg s.c.

With `CC(=O)N1CCC(NC(=O)Nc2ccc(OC(F)(F)F)cc2)CC1` [TPAU] the “mechanical allodynia elicited by streptozocin induced diabetic neuropathy” value (rats [1]) was “reduced”, the “spinal COX2 message after LPS” value (COX2 mRNA) was “significantly suppressed” and the “spinal StARD1 mRNA expression” value (StARD1 mRNA) was “sustained”. The “thermal withdrawal latency, sEHi alone” value (rats [2]) was “no significant differences”, the “duration of pentobarbital induced loss of righting response” value (C57BL/6 mice) was “significantly reduced; also recorded: did not change” and the “time to onset of picrotoxin induced seizures” value [3] was “did not significantly change”.
